Reference: US9481659B2, “Selective heterocyclic sphingosine 1 phosphate receptor modulators” (Celgene International II SÀRL, priority 2011, dated 2016)
Structures were worked out from names or drawings and are uncertain.

Protein sequences, listed by entry. Tags and fused reporters are not part of them.
UniProt P21453, whole entry: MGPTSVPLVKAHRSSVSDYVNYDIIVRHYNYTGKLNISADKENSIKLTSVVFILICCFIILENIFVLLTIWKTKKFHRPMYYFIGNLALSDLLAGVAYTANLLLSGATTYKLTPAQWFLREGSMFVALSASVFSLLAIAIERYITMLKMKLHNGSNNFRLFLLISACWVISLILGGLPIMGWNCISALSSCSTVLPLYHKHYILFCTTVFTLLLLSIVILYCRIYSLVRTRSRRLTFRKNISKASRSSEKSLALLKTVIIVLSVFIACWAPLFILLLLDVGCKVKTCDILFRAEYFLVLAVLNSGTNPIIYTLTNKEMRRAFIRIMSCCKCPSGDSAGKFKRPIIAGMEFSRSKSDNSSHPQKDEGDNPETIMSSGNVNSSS

Target: S1P1/EDG1 (Homo sapiens, UniProt P21453)
Assay: S1P1 CRE-bla CHOK1 reporter assay, inhibition of Forskolin induced cAMP
Details: read-out: S1P1 ACTIVITY; agonist activity range; S1P1 CRE-bla CHOK1 cells, 2 μM Forskolin; tested form: HCl

CC(C)Oc1ccc(-c2cnc(-c3cccc4c3CC[C@H]4N)s2)cc1C#N
EC50: 0.5 to 5 nM
